Data reported in PubChem BioAssay AID493014 (National Center for Advancing Translational Sciences (NCATS), 2011).
Hit rate of the full screen: of about 340,000 compounds, about 170 (0.05%) were called active. This list was built around the results that the source calls inconclusive (neither active nor inactive); the mix of calls is not that of the screen. Calls follow the shape of the dose curve; as a rule, active = well fitted inhibition curve with a large enough effect in the signal ratio, with a control signal flat (not every such curve was filed as active); inconclusive = small, poorly fitted or top-dose-only effect, or effect the other way, or a change in a side signal; inactive = flat fitted curve, though single readings scatter; the % refers to the signal ratio. Potencies beside an inconclusive call are fits to weak or partial responses and may not hold up.

Experiment: qHTS Assay to Find Inhibitors of Chronic Active B-Cell Receptor Signaling;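 as to activity change, negative = inhibition: plate controls were basal doxycycline-induced cells for no effect and cells given 10 µM MG132 for full effect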
Details: ABC-DLBCL IkBa-CBG/CBR reporter, luminescence ratio (green luciferase fused to IkBa over red control in TMD8 lymphoma cells), 4 h; activity change, negative = inhibition: at 46.1 µM (top of the series) unless noted
Method in brief: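 Concentration-response series (up to 46 uM) were applied to TMD8 dual-reporter cells for 4 h at 37C with doxycycline. Green/red ratio, after filter-overlap correction, defined %Activity; red signal alone was normalised to basal cells and zero luminescence.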
Potency is read from the fitted curve at half-maximal effect.

Structure (SMILES)	activity change, negative = inhibition	Potency
Cc1csc(NC(=O)CSc2ccc(-c3ccccn3)nn2)n1	inconclusive: -0.0202%	
COc1ccc([N+](=O)[O-])cc1N1C(=O)c2cccnc2C1=O		inconclusive: 0.631 µM [falling, partial curve, poor fit]
COc1cc2c(cc1OC)CN(CC(=O)Nc1ccc(F)cc1)CC2	inconclusive: -13.7%	
Cc1nc2nc(SCC(=O)NCc3ccco3)nn2c(C)c1Cc1ccccc1	inconclusive: 23.6%	
CCOc1ccc(Br)cc1C1=NN(C(C)=O)C(c2ccc([N+](=O)[O-])s2)O1 (stereo not drawn)		inconclusive: 28.2 µM [falling, partial curve]
Cc1ccc(C)c(NC(=S)N2CCC(NC(=O)C3CCCCC3)CC2)c1	inactive	
COc1ccccc1N(CCN1C(=O)c2cccc3cccc(c23)C1=O)C(=O)c1ccncc1	inactive	
Cc1ccc(S(=O)(=O)NCc2c(Cl)cccc2Oc2ccccc2)cc1	inactive	
CNCc1c(OCc2ccccc2F)ccc2ccccc12	inconclusive: -20.5%	
CCN(CCNC(=O)C1CCN(S(=O)(=O)c2cccc3nsnc23)CC1)c1ccccc1	inconclusive: 23.7%	
COCc1cc(C)nc(Oc2ccccc2)c1C#N	inconclusive: 21%	
CCC(C)(C)c1ccc(Oc2ccc(N)cc2)cc1	inactive	
O=C(COC(=O)c1ccco1)c1ccc2ccccc2c1	inconclusive: 18.1%	
Cc1c(C(=O)N2CCC[C@H]2CO)oc2c(F)cccc12	inconclusive: -16.4%	
Cc1ccc(O)c(-c2cc(-c3cccc(F)c3)n[nH]2)c1		inconclusive: 0.82 µM [rising, partial curve, poor fit]
CCCCOc1ccc(CSc2nnc(C)n2N)cc1[N+](=O)[O-]		inconclusive: 3.98 µM [falling, partial curve, poor fit]
Cc1ccc(NC(=O)C2C3CCCC2C3c2ccccc2)cc1 (stereo not drawn)	inconclusive: 0.878%	
O/N=C/c1ccccc1OCc1ccccc1Cl	inconclusive: 2.11%	
COc1ccc(CCN(C)CC(O)c2ccccc2)cc1OC (stereo not drawn)	inconclusive: 1.78%	
Cc1ccc(-n2nnnc2-c2cnc(-c3cccnc3)nc2C(F)(F)F)cc1		inconclusive: 25.9 µM [falling, single point]
Cc1cc(Br)ccc1NC(=O)c1cnc(N2CCN(c3ccccn3)CC2)c2ccccc12		inconclusive: 7.94 µM [falling, partial curve]
O=C(Nc1ccc(F)cc1)C1CCCCC1	inactive	
CC[C@]12c3[nH]c4cc(-c5ccco5)ccc4c3CCN1C(=O)[C@@H](CC(=O)NCCCn1ccnc1)C[C@@H]2C(=O)N1CCN(C(=O)C2CC2)CC1	inconclusive: 6.71%	

Quoted from the listing:
Value for `Cc1ccc(C)c(NC(=S)N2CCC(NC(=O)C3CCCCC3)CC2)c1` under activity change, negative = inhibition: inactive
Value for `CCN(CCNC(=O)C1CCN(S(=O)(=O)c2cccc3nsnc23)CC1)c1ccccc1` under activity change, negative = inhibition: inconclusive: 23.7%
